According to PMC3098239:
These are yes or no findings as the source states them, for the method shown. Binding seen in cells or lysates may run through a third protein. Binding calls can cover weak binding; strength is not graded here. Tags and fused reporters may be left off the sequences shown.

By UniProt entry, the sequences of proteins in these tests, tags left out. Where a name states a change or a piece, a line headed by the entry shows the natural chain unless it says otherwise.
UniProt Q3KNM2: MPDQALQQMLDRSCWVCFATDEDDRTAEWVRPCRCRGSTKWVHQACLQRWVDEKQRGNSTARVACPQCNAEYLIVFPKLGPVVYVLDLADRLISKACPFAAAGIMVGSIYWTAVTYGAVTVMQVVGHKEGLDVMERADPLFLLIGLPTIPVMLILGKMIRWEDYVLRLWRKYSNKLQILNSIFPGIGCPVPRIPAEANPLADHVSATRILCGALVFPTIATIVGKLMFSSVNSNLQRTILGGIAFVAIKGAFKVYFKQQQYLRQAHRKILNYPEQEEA

Target: HA-MARCH5 C2A (mouse (from the printed RefSeq NP_081590)) (UniProt Q3KNM2)
Assay: co-IP; HEK293T cells cotransfected with HA-MARCH5 construct and Flag-TANK; lysis in TBS (50 mM Tris-Cl pH 7.4, 150 mM NaCl) with 1% Triton-X 100; immunoprecipitated with anti-HA, blotted with anti-Flag; 4°C

- binding: binds
B1: Flag-TANK (wild type) (protein, UniProt P70347-2 1-414)
chain: MDKNIGEQLNRAYEAFRQACMDRDSAVRELQQKQTENYEQRIREQQEQLSFQQNLIDRLKSQLLLVDSSRDNSYGYVPLLEDSDRRKNNLTLDEPHDKVKLGTLRDKQSKVRRQEVSSGKESAKGLNIPLHHERDNIEKTFWDLKEEFHRICLLAKAQKDHLSKLNIPDIATDTQCSVPIQCTDKTEKQEALFKPQAKDDINRGMSCVTAVTPRGLGRDEEDTSFESLSKFNVKFPPMDNDSIFLHSTPEAPSILAPATPETVCQDRFNMEVRDNPGNFVKTEETLFEIQGIDPITSAIQNLKTTDKTNPSNLRATCLPAGDHNVFYVNTFPLQDPPDAPFPSLDSPGKAVRGPQQPFWKPFLNQDTDLVVPSDSDSELLKPLVCEFCQELFPPSITSRGDFLRHLNTHFNGET
